{
  "source": "patent US9446063B2",
  "about": "“Methods for treating type-2 diabetes and obesity” (priority 2009, dated 2016)",
  "experiment": "HPLC quantification of ascorbic acid, chlorogenic acid, caffeic acid, ferulic acid and rutin in tubers, tuber tissues and extracts",
  "details": "tubers of 12 Canadian-grown cultivars, cold storage",
  "note": "For at least one compound, name, drawing or mass did not settle the structure.",
  "data": [
    {"compound": "C[C@@H]1O[C@@H](OC[C@H]2O[C@@H](Oc3c(-c4ccc(O)c(O)c4)oc4cc(O)cc(O)c4c3=O)[C@H](O)[C@@H](O)[C@@H]2O)[C@H](O)[C@H](O)[C@H]1O", "note": "[rutin]", "values": [
      {"measurement": "% reduction; from 1 to 7 months storage (HPLC content)", "result": 81.50, "unit": "%"}
    ]}
  ]
}
